Measured values: article PMC10674255
These are yes or no findings as the source states them, for the method shown. Tags and fused reporters may be left off the sequences shown.

Molecular target: T1, FLAG-tagged human IRF3 (human) (UniProt Q14653)
T1 sequence: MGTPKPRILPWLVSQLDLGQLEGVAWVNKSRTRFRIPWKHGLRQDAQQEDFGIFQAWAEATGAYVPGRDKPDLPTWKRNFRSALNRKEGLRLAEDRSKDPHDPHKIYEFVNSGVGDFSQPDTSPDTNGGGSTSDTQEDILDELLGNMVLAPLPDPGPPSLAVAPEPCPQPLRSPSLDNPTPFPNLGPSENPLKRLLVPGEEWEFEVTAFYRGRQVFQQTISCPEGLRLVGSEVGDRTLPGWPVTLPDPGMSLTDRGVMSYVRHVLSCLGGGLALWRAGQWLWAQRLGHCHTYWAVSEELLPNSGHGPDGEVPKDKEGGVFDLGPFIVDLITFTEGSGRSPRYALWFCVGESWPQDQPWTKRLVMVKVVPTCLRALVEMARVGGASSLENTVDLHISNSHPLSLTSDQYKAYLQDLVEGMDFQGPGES
Assay: pull-down; cell-free interaction assay: FLAG proteins from separately transfected 293T lysates immunoprecipitated on FLAG beads and washed, then HA-peptide-eluted (partially purified) HA-TRIM40 from 293T added; both purified

B1: human HA-TRIM40 (protein, UniProt Q6P9F5 1-258)
chain: MIPLQKDNQEEGVCPICQESLKEAVSTNCGHLFCRVCLTQHVEKASASGVFCCPLCRKPCSEEVLGTGYICPNHQKRVCRFCEESRLLLCVECLVSPEHMSHHELTIENALSHYKERLNRRSRKLRKDIAELQRLKAQQEKKLQALQFQVDHGNHRLEAGPESQHQTREQLGALPQQWLGQLEHMPAEAARILDISRAVTQLRSLVIDLERTAKELDTNTLKNAGDLLNRSAPQKLEVIYPQLEKGVSELLLQPPQKL
binding: no binding
